The values below come from patent US20260053833A1, “COMPOSITIONS AND METHODS FOR TREATING CARDIOMYOPATHIES” (THE BOARD OF REGENTS OF THE UNIVERSITY OF TEXAS SYSTEM, priority 2022, published 2026).

The assay concerns the target ΔK210 troponin complex (Homo sapiens, UniProt P19429+P45379, C80A/C97A/DEL220-220/T31M). Nature of the assay: Crystal structure of ΔK210 bound with Ca^2+ in the presence of bisphosphonates. To be noted: same crystallization condition as ΔK210 with risedronate.

`NCCCC(O)(P(=O)(O)O)P(=O)(O)O` [elandronate]: the “ligand density in crystal structure” value is listed as “no ligand density was observed”.
